Binding data for 1 substance are collected here from PMC6155239, “Targeting PFKFB3 radiosensitizes cancer cells and suppresses homologous recombination” (Nature Communications, 2018).

Protein sequences, listed by entry. Tags and fused reporters are not part of them.
UniProt Q16875: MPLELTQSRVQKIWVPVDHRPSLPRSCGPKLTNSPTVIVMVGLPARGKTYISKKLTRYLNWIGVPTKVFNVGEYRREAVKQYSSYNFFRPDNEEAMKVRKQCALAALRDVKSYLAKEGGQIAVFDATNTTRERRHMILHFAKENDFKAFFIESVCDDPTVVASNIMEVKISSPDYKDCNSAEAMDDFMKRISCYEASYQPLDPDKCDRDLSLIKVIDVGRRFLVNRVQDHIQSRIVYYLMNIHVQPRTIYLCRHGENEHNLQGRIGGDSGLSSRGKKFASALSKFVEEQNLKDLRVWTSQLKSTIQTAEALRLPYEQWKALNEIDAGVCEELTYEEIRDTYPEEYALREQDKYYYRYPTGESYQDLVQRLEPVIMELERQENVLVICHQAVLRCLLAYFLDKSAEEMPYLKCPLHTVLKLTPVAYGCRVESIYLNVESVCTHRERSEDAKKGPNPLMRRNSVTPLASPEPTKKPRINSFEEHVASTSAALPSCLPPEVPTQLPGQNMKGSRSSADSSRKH

No constants are given. Whether binding was seen depends on the method and setting. Binding seen in cells or lysates may run through a third protein. Some entries that bind do so weakly or less than the wild type.

The target of assay [1] is T1, RRM2 subunit of ribonucleotide reductase (human (endogenous in U2OS)) (UniProt P31350).
T1 sequence: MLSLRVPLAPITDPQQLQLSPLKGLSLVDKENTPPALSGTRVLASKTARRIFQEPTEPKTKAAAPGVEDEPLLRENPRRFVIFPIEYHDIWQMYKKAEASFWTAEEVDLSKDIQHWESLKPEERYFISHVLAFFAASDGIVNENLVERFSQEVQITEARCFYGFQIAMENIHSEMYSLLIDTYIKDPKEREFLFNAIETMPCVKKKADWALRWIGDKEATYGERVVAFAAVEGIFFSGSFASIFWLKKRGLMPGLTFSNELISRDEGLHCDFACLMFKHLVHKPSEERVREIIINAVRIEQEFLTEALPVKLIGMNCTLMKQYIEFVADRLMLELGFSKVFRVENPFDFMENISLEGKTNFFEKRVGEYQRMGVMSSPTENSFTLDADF
Description: co-IP; U2OS cells transfected with FLAG-PFKFB3, exposed to IR (6 Gy), lysed 2 h post-IR; supernatant immunoprecipitated with RRM2 antibody overnight at 4 °C, Protein G, immunoblot with FLAG antibody. A general note: A western blot detects proteins with antibodies after separation by electrophoresis.

The target of assay [2] is T1, RRM2 subunit of ribonucleotide reductase (human (endogenous in U2OS)). Description: co-IP; U2OS cells transfected with FLAG-PFKFB3, left untreated (non-IR); supernatant immunoprecipitated with RRM2 antibody overnight at 4 °C, Protein G, immunoblot with FLAG antibody.

Turning to “FLAG-PFKFB3 (from UniProt Q16875 1-520) (enzyme)”, the binding entry in assay [1] was “binds”; in assay [2] it was “no binding (condition: cells not exposed to IR)”.
